# Assay results reported in PubChem BioAssay AID504834 (National Center for Advancing Translational Sciences (NCATS), 2011).
# Where “and” joins values, the source holds several entries; their conditions need not be identical. Equal values may be shown once. Hit rate of the full screen: of about 320,000 compounds, about 22,000 (6.9%) were called active. The inconclusive results got no clear call from the source; some entries with a clear call stand among them for comparison. Calls follow the shape of the dose curve; as a rule, active = well fitted inhibition curve with a large enough effect; inconclusive = small, poorly fitted or top-dose-only effect, or another doubt; inactive = no such curve, though single readings can be large or run the other way. Where the call is inconclusive, the potency comes from a doubtful curve fit.
# Experiment: Primary qHTS for delayed death inhibitors of the malarial parasite plastid, 96 hour incubation
# Details: P. falciparum luciferase reporter growth; series mostly up to 28.7 µM; activity change, negative = inhibition: at the top concentration
# Procedure, shortened: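 Plates of compound plus infected erythrocytes (2% hematocrit, 0.05% parasitemia final) incubate 96 hours, 37 C, 5% CO2. Detection reagent added; reduced luminescence from the parasites' luciferase reporter flags inhibition.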
# % is scaled to controls: 0 for no effect and ±100 for the full control effect; potency is read from the fitted curve at half-maximal effect.
SMILES,"activity change, negative = inhibition",Potency
COc1cc(C(=O)NCc2nnc(SCC(=O)N3CCOCC3)o2)cc(OC)c1OC,inactive: 38.2%,–
CC1CCN(CCCNC(=O)Cn2ncc3c([nH]c4ccccc43)c2=O)CC1,–,"inconclusive: 9.28 µM [inhibitor, partial curve, poor fit]"
CCN(c1ccccc1)S(=O)(=O)c1cc(C(=O)OC2CCOC2=O)ccc1C (stereo not drawn),inactive: -2.29%,–
CCCNC(=O)c1cc(-c2ccc3c(c2)OCO3)on1,inactive: -6.84%,–
CCc1n[nH]c(=S)n1/N=C/c1ccccn1,–,"inconclusive: 9.28 µM [inhibitor, partial curve]"
COc1ccc(C2c3c(oc4ccccc4c3=O)C(=O)N2c2ccccn2)cc1 (stereo not drawn),–,"inconclusive: 11.7 µM [inhibitor, single point]"
COc1ccc(C(=O)NCCC2=CCCCC2)cc1S(=O)(=O)N1CCOCC1,–,"inconclusive: 10.4 µM [inhibitor, single point]"
C=CCn1c(-c2cccc3ccccc23)n[nH]c1=S,–,"inconclusive: 14.7 µM [inhibitor, single point]"
COCCC(=O)Nc1c(-c2ccccc2)c2cc(Br)ccc2[nH]c1=O,–,"inconclusive: 18.5 µM [inhibitor, single point]"
Cc1cccc(N2CCN(CC(O)COCc3cccs3)CC2)c1C (stereo not drawn),–,"inconclusive: 18.5 µM [inhibitor, single point]"
Cc1cc(-c2csc(N)n2)c(C)n1C,–,active: 10.4 µM
COc1ccc(C(=O)NCc2ccc(Cl)cc2)cc1S(=O)(=O)N1CCCC1,–,"inconclusive: 14.7 µM [inhibitor, single point]"
CC(C)(C)C(=O)N1CCN(c2ccc([N+](=O)[O-])c(NCC3CCCO3)c2)CC1 (stereo not drawn),–,"inconclusive: 10.4 µM [inhibitor, partial curve, poor fit]"
CC(=O)c1ccc(NC(=S)NCc2ccco2)cc1,inactive: -15.7%,–
O=C(/C=C/c1cn(-c2ccccc2)nc1-c1cccnc1)NCCN1CCOCC1,–,"inconclusive: 0.0828 µM [inhibitor, full curve, poor fit]"
COCCN(C(=O)CSCc1ccc(C)cc1)c1c(N)n(CC(C)C)c(=O)[nH]c1=O,inactive: -15.3%,–
CCN(CC)CCCNC(=O)c1cc(Nc2ccc(OC)cc2OC)nc2ccccc12,–,"inconclusive: 4.15 µM [inhibitor, partial curve, poor fit]"
C#CCOCCOCCOCCNc1nc(N2CCN(C(=O)[C@H]([C@@H](C)CC)n3cc(CCCN=C(N)N)nn3)CC2)nc(N2CCN(C(=O)[C@H](CCCCN)n3cc(CCCC)nn3)CC2)n1,–,active: 11.7 µM
Cc1ccc(S(=O)(=O)/N=C(/NNC(=O)c2cccc(Cl)c2)c2ccccc2)cc1,–,"inconclusive: 4.65 µM [inhibitor, partial curve]"
O=C(O)C1CCCCC1C(=O)Nc1ccccc1F (stereo not drawn),–,"inconclusive: 0.465 µM [inhibitor, full curve, poor fit]"
CC[N+](CC)(CC)CCOc1ccc(/C=C/c2ccccc2)cc1,–,active: 0.738 µM
O=C(NNC(=O)c1oc2ccccc2c1-n1cccc1)c1ccco1,–,"inconclusive: 18.5 µM [inhibitor, single point]"
CCOc1ccccc1NC(=O)NC(C)c1ccncc1 (stereo not drawn),inactive: 70.1%,–

SMILES,"activity change, negative = inhibition",Potency
CCOC(=O)CNc1nc(Cl)nc(Nc2ccc(C)cc2)n1,inactive: -3.44%,–
Cc1ccccc1-c1nc(CN2CCC(C(=O)O)CC2)c(C)o1,–,"inconclusive: 16.5 µM [inhibitor, single point]"
Cc1ccc(/C=C/C(=O)OCC(=O)Nc2ccccc2Sc2ccccc2)cc1,–,"inconclusive: 18.5 µM [inhibitor, single point]"
COc1cc2c(cc1OC)-c1cc(Nc3ccccc3)nc(=O)n1CC2,–,"inconclusive: 11.7 µM [inhibitor, single point]"
O=C(N/N=C/c1cc(Br)cs1)C(O)c1ccccc1 (stereo not drawn),–,"inconclusive: 4.15 µM [inhibitor, partial curve]"
COc1ccc(NC(=O)CN(C2CCCCC2)S(C)(=O)=O)cc1OC,–,"inconclusive: 4.15 µM [inhibitor, partial curve, poor fit]"
O=C(CCl)Nc1cccc(Oc2ccccc2)c1,–,active: 4.65 µM
O=C(c1ccco1)N1CCN(C(=O)C2CCN(S(=O)(=O)c3cccs3)CC2)CC1,–,"inconclusive: 0.37 µM [inhibitor, full curve, poor fit]"
COCCn1c(SCC(=O)N2CCOCC2)nc2c(c1=O)SCC2,–,"inconclusive: 8.28 µM [inhibitor, partial curve, poor fit]"
COc1ccc(CN(Cc2ccco2)S(=O)(=O)c2ccc(S(=O)(=O)N3CCCC3)cc2)cc1,–,"inconclusive: 3.29 µM [inhibitor, partial curve, poor fit]"
Cc1cc(C(=O)CN2C(=O)c3cccc(N)c3C2=O)c(C)n1Cc1cccs1,inactive: 11.1%,–
O=C(Cn1nnc2ccccc21)OCc1ccccc1,–,"inconclusive: 0.0928 µM [inhibitor, full curve, poor fit]"
Nn1c(CSc2ccccn2)nc2ccccc2c1=O,–,"inconclusive: 0.233 µM [inhibitor, full curve]"
CCOc1ccccc1NC(=O)CSc1nnc(-c2ccco2)n1Cc1ccco1,–,"inconclusive: 18.5 µM [inhibitor, single point]"
Cc1nc2cc(C(=O)O)ccc2n1C1CCCCC1,inactive: -14.9%,–
CCNC(=S)NNc1nc(N2CCCCC2)nc(N2CCOCC2)n1,–,"inconclusive: 4.15 µM [inhibitor, single point]"
COc1cccc(CNC(=O)c2ccc(NC(=O)CC3SC(N4CCCC4)=NC3=O)cc2)c1 (stereo not drawn),–,"inconclusive: 14.7 µM [inhibitor, partial curve, poor fit]"
COc1cccc(-c2nc(CS(=O)(=O)CC(=O)NCCc3cc(OC)ccc3OC)c(C)o2)c1,–,active: 13.1 µM
O=C(CSc1nnc(C2COc3ccccc3O2)o1)NC1CCCCC1 (stereo not drawn),inactive: 0.535%,–
CCC(=O)N(CCc1ccccc1C)Cc1cc2cc3c(cc2[nH]c1=O)OCO3,–,"inconclusive: 9.28 µM [inhibitor, single point]"
CC(=O)Nc1sc2c(c1-c1nc3ccccc3s1)CCN(C(C)C)C2,–,active: 8.28 µM and active: 4.15 µM
C[C@]12C=CC(=O)C=C1C=C[C@@H]1C2CC[C@]2(C)C(=O)CCC12 (stereo partly drawn),–,"inconclusive: 16.5 µM [inhibitor, single point]"
COc1ccc(NC(=O)c2oc3ccccc3c2NC(=O)C2CC2)c(OC)c1,inactive: -14.8%,–

# Exported with bars between the fields: 3 of the compounds above
SMILES | activity change, negative = inhibition | Potency
C#CCOCCOCCOCCNc1nc(N2CCN(C(=O)[C@H]([C@@H](C)CC)n3cc(CCCN=C(N)N)nn3)CC2)nc(N2CCN(C(=O)[C@H](CCCCN)n3cc(CCCC)nn3)CC2)n1 | – | active: 11.7 µM
Cc1ccc(S(=O)(=O)/N=C(/NNC(=O)c2cccc(Cl)c2)c2ccccc2)cc1 | – | inconclusive: 4.65 µM [inhibitor, partial curve]
O=C(O)C1CCCCC1C(=O)Nc1ccccc1F (stereo not drawn) | – | inconclusive: 0.465 µM [inhibitor, full curve, poor fit]

# Next part.

SMILES,"activity change, negative = inhibition",Potency
Cc1ccc2c(c1)/C(=C/c1ccco1)C(=O)N2,–,"inconclusive: 18.5 µM [inhibitor, single point]"
CCC(OC(=O)c1nsc(Cl)c1Cl)C(=O)NCC1CCCO1 (stereo not drawn),inactive: -19.9%,–
O=c1c2ccsc2ncn1Cc1ccc(Cl)cc1,–,"inconclusive: 8.28 µM [inhibitor, partial curve, poor fit]"
COc1ccc(S(=O)(=O)N2CCCCCC2)cc1C(=O)Nc1ccc(C(=O)N(C)C)cc1,–,"inconclusive: 8.28 µM [inhibitor, partial curve, poor fit]"
Cc1c(NC(=O)COC(=O)c2c3c(nc4ccccc24)CCCC3)c(=O)n(-c2ccccc2)n1C,–,"inconclusive: 11.7 µM [inhibitor, single point]"
CCOc1ccc(CCNc2nc3ccccc3n3cnnc23)cc1OCC,–,"inconclusive: 3.7 µM [inhibitor, partial curve]"
CC1Cc2ccccc2N1C(=O)Cn1c(=O)oc2cc(S(=O)(=O)NC3CCCC3)ccc21 (stereo not drawn),inactive: -1.84%,–
O=C(NCCc1ccccc1)c1ccc(=O)oc1,–,"inconclusive: 18.5 µM [inhibitor, single point]"
O=C(Nc1ccccc1[N+](=O)[O-])C1COc2ccccc2O1 (stereo not drawn),–,active: 11.7 µM
CN(Cc1ccc(-n2cccn2)cc1)C(=O)c1cnn2c1NC(c1ccco1)CC2C(F)(F)F (stereo not drawn),–,"inconclusive: 23.3 µM [inhibitor, partial curve, poor fit]"
COC(=O)C1=C(C(=O)OC)[C@@H]2N(Cc3ccccc3)c3ccccc3[C@@]23C[C@@H](C(=O)OC)N(C(=O)CC(C)C)C3=N1,–,active: 4.65 µM
O=[N+]([O-])c1cc(/C=N/N/C(=N/c2ccccn2)c2ccccn2)ccc1O,–,"inconclusive: 1.85 µM [inhibitor, single point]"
CC(=O)c1ccc(N(C(=O)c2ccco2)C(C(=O)NC2CCCC2)c2cccs2)cc1 (stereo not drawn),–,"inconclusive: 1.04 µM [inhibitor, full curve, poor fit]"
Cc1cnc(C)c(N2CCN(Cc3nc(-c4ccccc4)no3)CC2)n1,inactive: -9.99%,–
Nc1nc(CSc2n[nH]c(-c3ccccc3)n2)nc(Nc2ccccc2)n1,–,"inconclusive: 14.7 µM [inhibitor, single point]"
O=c1c2c(nc3cc(-c4ccc(F)cc4)[nH]n13)CCC2,–,"inconclusive: 18.5 µM [inhibitor, single point]"
COC(=O)c1ccc(CN2CCCC(CNC(=O)Cc3ccc(OC)cc3)C2)cc1 (stereo not drawn),–,"inconclusive: 18.5 µM [inhibitor, single point]"
Cc1cc(N2CCN(C)CC2)nc2ccc(NC(=S)NCCCN3CCN(C)CC3)cc12,inactive: -10.2%,–
COc1ccc(/C(O)=C2/C(=O)C(=O)N(CCCN3CCOCC3)C2c2ccc(C(C)C)cc2)cc1 (stereo not drawn),–,"inconclusive: 13.1 µM [inhibitor, single point]"
O=C1c2ccccc2C(=O)N1CN(C(=O)COc1ccccc1)c1ccccc1,–,"inconclusive: 11.7 µM [inhibitor, single point]"
COc1ccc(Cl)cc1C(=O)NCC(c1ccco1)N(C)C (stereo not drawn),inactive: -4.77%,–
O=C(COc1ccccc1)Nc1nc2ccccc2[nH]1,inactive: 120%,–
